PubChem BioAssay AID504774 | Drosophila RNAi Screening Center – 2011

Aim: 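Knock-downs that shift viability of MMS-exposed cells relative to untreated ones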 (primary screen)
System: Drosophila Kc167 cells
Reagents: long dsRNA against Drosophila genes, about 0.25 µg dsRNA per well
Duration: about 6 days: 3 days knock-down, then 3 days with or without MMS
Treatment: methyl methanesulphonate 0.004% (w/v) for 3 days after knock-down
Detection: 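ATP-dependent luminescence as a measure of live cells in MMS-exposed wells, quantile normalised within each plate, with replicate values also given as a mean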
Direction: mean viability with MMS: higher = more surviving cells after MMS
The deposit covers about 23,000 reagents; below is a random part of those with a known target gene and a result. 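Values are quantile-normalised luminescence on an arbitrary scale; higher means more cells surviving MMS.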 The numbers tell different reagents against one gene apart. Further read-outs or replicates are left out here. No sequences are given here.

CG34243 (retired record) #1 | mean viability with MMS: 3.50e6
CG34243 (retired record) #2 | mean viability with MMS: 3.67e6
CG5539 | mean viability with MMS: 3.49e6
Phae1 | mean viability with MMS: 3.82e6
RNaseX25 | mean viability with MMS: 3.47e6
mthl3 | mean viability with MMS: 3.83e6
Akh | mean viability with MMS: 3.54e6
CG6071 | mean viability with MMS: 3.43e6
CG5174 | mean viability with MMS: 3.55e6
CG6972 | mean viability with MMS: 3.57e6
CG11670 | mean viability with MMS: 3.65e6
CG7881 | mean viability with MMS: 3.56e6
CG6833 | mean viability with MMS: 3.55e6
RPA2 | mean viability with MMS: 3.56e6
Lerp #1 | mean viability with MMS: 3.41e6
Lerp #2 | mean viability with MMS: 3.78e6
Lerp #3 | mean viability with MMS: 3.65e6
Lerp #4 | mean viability with MMS: 3.74e6
mRpL35 | mean viability with MMS: 3.61e6
CG3527 | mean viability with MMS: 3.44e6
CG4645 | mean viability with MMS: 3.82e6
fiz | mean viability with MMS: 3.57e6
BuGZ #1 | mean viability with MMS: 3.10e6
BuGZ #2 | mean viability with MMS: 3.48e6
